# Test results published in PubChem BioAssay AID504444 (National Center for Advancing Translational Sciences (NCATS), 2011).
# The campaign covered roughly 360,000 compounds. About 7,500 (2.1%) were called active. The shares of active, inactive and inconclusive entries below differ from those in the screen. Calls follow the shape of the dose curve; as a rule, active = well fitted inhibition curve with a large enough effect; inconclusive = small, poorly fitted or top-dose-only effect, or effect the other way; inactive = flat fitted curve, though single readings scatter. A potency beside an inconclusive call is a rough fit, not a confirmed value.
# Assay: Nrf2 qHTS screen for inhibitors; also: nearly all actives have a fitted effect of over 60% in size
# Settings: A549 ARE-Fluc reporter, luciferase luminescence, 18-24 h; activity change, negative = inhibition: at 46 µM (top of the series)
# Procedure, shortened: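 A549 ARE_Fluc cells (5000/well, 5% FBS OPTI-MEM) pre-incubated 2 h, then treated with compounds 18-24 h at 37C/5% CO2 in concentration-response. CellTiter-Fluor viability read first; BugLite luciferase luminescence after 15 min at room temperature gives Nrf2 activity.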
# % is scaled to controls: 0 for no effect and ±100 for the full control effect; potency is read from the fitted curve at half-maximal effect.
Compound,"activity change, negative = inhibition",Potency
CCc1ccc(NC(=O)C(CC)n2c(=O)c(C(F)(F)F)nc3ccccc32)cc1 (centres undefined),inactive: -6.72%,
CCOc1ccc2oc(C(=O)NCC3CCCO3)c(C)c2c1 (centres undefined),,"inconclusive: 13 µM [activator, partial curve]"
Cc1ccc2c(c1)N=C(c1ccccc1)CC(C(Cl)Cl)=N2,,"inconclusive: 4.61 µM [activator, full curve]"
Cc1cc(OCC(=O)NCC(O)c2ccccc2)c2c(C)c(C)c(=O)oc2c1 (centres undefined),,"inconclusive: 29.1 µM [falling, single point]"
CN(C)S(=O)(=O)c1ccc2c(c1)nc(CCC(=O)NCc1ccc(Cl)cc1)n2C,,active: 23.1 µM
C[C@@H](c1ccccc1)N1Cc2ccccc2Oc2cc(Br)ccc2S1(=O)=O,,"inconclusive: 9.2 µM [falling, partial curve]"
CCCNC(=O)NC(=O)CN1C(=O)NC(C)(c2ccc3ccccc3c2)C1=O (centres undefined),,"inconclusive: 13 µM [falling, partial curve, poor fit]"
CCOC(=O)/C(=N\Nc1ccccc1[N+](=O)[O-])c1csc(Nc2ccccc2)n1,,active: 20.6 µM
CCc1nc(-c2cc(S(=O)(=O)N3CCN(c4ccccc4OC)CC3)ccc2OC)no1,inactive: -1.51%,
COc1ccc(-c2noc(-c3ccoc3C)n2)cc1,,"inconclusive: 25.9 µM [activator, single point]"
Cc1ccccc1-c1nnc2c3ccccc3c(C)nn12,inactive: 26.2%,
CCOC(=O)Cn1c(=O)c2c(nc3n2CCN3c2ccc(CC)cc2)n(C)c1=O,,"inconclusive: 29.1 µM [falling, single point]"
COc1cc(Cl)c(C)cc1Nc1ncnc2c1nc1n2CCCC1,,"inconclusive: 29.1 µM [activator, single point]"
NC(=O)c1ccc2c(c1)S(=O)(=O)c1ccccc1C2=O,,"inconclusive: 18.4 µM [falling, partial curve, poor fit]"
CCOC(=O)c1ccccc1NC(=O)C1CCN(c2ncnc3sc(C)c(C)c23)CC1,inactive: -3.94%,
CCc1nc2ccccc2c(C(=O)OCC(=O)NC2CCCC2)c1C,,"inconclusive: 11.6 µM [falling, partial curve, poor fit]"
O=C1NC(c2cccc(Br)c2)=N/C1=C\c1ccco1,,"inconclusive: 16.4 µM [activator, partial curve, poor fit]"
CCOC(=O)C(Cc1ccccc1)C(=O)Nc1cccc2ccccc12 (centres undefined),inactive: 3.97%,
CCCN(C(=O)c1noc2c1COc1ccc(C)cc1-2)c1ccc(Cl)c(Cl)c1,,"inconclusive: 29.1 µM [activator, single point]"
CCOC(=O)c1cc2c(=O)n3ccccc3nc2n(CC(C)C)c1=NC(=O)c1c(-c2c(F)cccc2Cl)noc1C,,"inconclusive: 10.3 µM [falling, partial curve]"
Cc1cccc(C)c1OCCCN1CCOCC1,inactive: -3.81%,
CCOC(=O)c1ccccc1OCc1cc(/C=N/n2cnnc2)ccc1OC,,"inconclusive: 18.4 µM [falling, partial curve, poor fit]"
Cc1nn2c(c1-c1ccc(Cl)cc1)N=C(c1ccco1)CC2c1ccccc1 (centres undefined),,"inconclusive: 25.9 µM [falling, partial curve, poor fit]"

# An excerpt of these results, tab-delimited.
Compound	activity change, negative = inhibition	Potency
CCc1nc2ccccc2c(C(=O)OCC(=O)NC2CCCC2)c1C		inconclusive: 11.6 µM [falling, partial curve, poor fit]
O=C1NC(c2cccc(Br)c2)=N/C1=C\c1ccco1		inconclusive: 16.4 µM [activator, partial curve, poor fit]

# (list continues)

Compound,"activity change, negative = inhibition",Potency
Cc1cc(NC(=O)c2coc(=O)c(Br)c2)ccc1C(C)C,,"inconclusive: 29.1 µM [activator, single point]"
Cc1ccc(CNCCCn2cnc3c(OCc4ccccc4)ncnc32)o1,,"inconclusive: 9.2 µM [activator, partial curve]"
CCCCNc1ccc(C(F)(F)F)cc1S(=O)(=O)NCCc1ccc(F)cc1,,"inconclusive: 23.1 µM [falling, single point]"
O=c1[nH]c(-c2ccncc2)nc2ccccc12,,"inconclusive: 10.3 µM [falling, partial curve, poor fit]"
Cc1cccc(-n2c(C)cc(C(=O)NC3CCCCC3)c2C)c1,inactive: -21%,
COc1ccccc1N1C(=O)C2CC(C)=C(C)CC2C1=O (centres undefined),inactive: 3.58%,
O=C(O)C1CCCN1S(=O)(=O)c1ccccc1 (centres undefined),,"inconclusive: 0.0651 µM [activator, full curve]"
CCCCn1c2ccc(F)cc2c2nnc(NN)nc21,,"inconclusive: 29.1 µM [falling, single point]"
COCCNC(=O)c1cccc(OC2CCN(Cc3ccc(OC(F)F)cc3)CC2)c1,,"inconclusive: 25.9 µM [falling, partial curve, poor fit]"
CCN(CC)c1ccc(NC(=O)CSc2nc(C3CC3)nc3ccccc23)cc1C,,"inconclusive: 20.6 µM [activator, single point]"
Cc1ccc(C(C(=O)NCc2ccco2)N(C(=O)Cc2cccs2)c2cccnc2)cc1 (centres undefined),,"inconclusive: 1.16 µM [activator, partial curve, poor fit]"
O=c1[nH]c2cc3c(cc2cc1CN(Cc1cccs1)Cc1nnnn1Cc1ccco1)OCCO3,,"inconclusive: 29.1 µM [falling, single point]"
O=[N+]([O-])c1cc(C(F)(F)F)ccc1NCCc1ccccn1,,"inconclusive: 29.1 µM [falling, single point]"
COc1ccc(OCC(=O)N2CCCC(CO)(CCOc3ccccc3)C2)cc1 (centres undefined),,"inconclusive: 23.1 µM [falling, single point]"
CC(C)Sc1nc2ccccc2n1CC(=O)NCc1ccc2c(c1)OCO2,inactive: -24%,
Cc1cccc(C(=O)Nc2nnc(SCC(=O)NCc3ccco3)s2)c1,inactive: 8.93%,
CCOC(=O)[C@H]1[C@H]2COc3ccc(OC)cc3[C@@H]2N2C(=O)c3cc(OC)c(OC)cc3NC(=O)[C@@]12C,,"inconclusive: 0.231 µM [activator, full curve, poor fit]"
Cn1c(C(=O)Nc2ccc3c(c2)OCCO3)cc2sccc21,,"inconclusive: 8.2 µM [activator, partial curve]"
Cc1cc(Br)ccc1NC(=S)Nc1cccc([N+](=O)[O-])c1,inactive: -13.4%,
CCCOc1cccc(C(=O)N(Cc2ccc(C)o2)C2CCS(=O)(=O)C2)c1 (centres undefined),inactive: 1.45%,
CC(C)(C)OC(=O)NCCCCCc1nnc(SCC(N)=O)o1,,"inconclusive: 29.1 µM [activator, single point]"
CC(C)OC(=O)c1nnn(-c2nonc2N)c1CN1CCc2ccccc2C1,inactive: -1.43%,
O=C(CSc1nnc2n1CCCN2C(=S)Nc1ccc(Cl)cc1)c1ccccc1,,"inconclusive: 11.6 µM [falling, partial curve, poor fit]"

Compound,"activity change, negative = inhibition",Potency
Cc1cccc(NC(=O)CC(=O)Nc2cccc(C)c2)c1,inactive: 2.45%,
Cc1nc2ccccc2c2c(N)c3ccccc3n12,inactive: 8.18%,
Cn1c(SCC(=O)Nc2cc(Cl)cc(Cl)c2)nnc1-c1ccc2nonc2c1,,"inconclusive: 29.1 µM [falling, partial curve, poor fit]"
COc1ccc(C(=O)NCC(=O)N/N=C/c2ccc([N+](=O)[O-])o2)cc1OC,,"inconclusive: 16.4 µM [falling, single point]"
COc1ccc(N(Cc2ccccc2)S(=O)(=O)c2ccc(C)cc2)cc1,,"inconclusive: 2.59 µM [activator, full curve, poor fit]"
c1ccc(-c2csc3ncnc(NCC4COc5ccccc5O4)c23)cc1 (centres undefined),,active: 1.64 µM
O=C(O)c1ccc(NNC(=S)Nc2cc(C(F)(F)F)ccc2Cl)cc1,,"inconclusive: 18.4 µM [activator, single point]"
COc1cc2ncc(C(=O)c3ccccc3)c(N3CCN(Cc4ccccc4)CC3)c2cc1OC,,"inconclusive: 23.1 µM [falling, partial curve]"
CCOC(=O)c1cnn(-c2cc(C)nc3c(-c4ccccc4)c(C)nn23)c1N,,"inconclusive: 29.1 µM [activator, single point]"
Cc1ccc(Sc2ccc(NC(=O)CCl)cc2)cc1C,inactive: 11.1%,
CCOC(=O)c1ccc(/[N+]([O-])=C/c2ccccc2)cc1,,"inconclusive: 6.51 µM [activator, partial curve]"
COc1ccc(Cn2c(C(=O)O)c(CNCCc3cccs3)c3ccc(C)cc32)cc1,,"inconclusive: 7.31 µM [activator, partial curve]"
CC1CCN(S(=O)(=O)c2nnc(NC(=O)c3cccc([N+](=O)[O-])c3)s2)CC1,,"inconclusive: 16.4 µM [falling, single point]"
CC(=O)c1ccc(NC(=O)Cn2c(=O)c3cccn3c3ccccc32)cc1,inactive: -14%,
COc1ccc(OCCNc2cc(N3CCCCC3)ccc2[N+](=O)[O-])cc1,,"inconclusive: 25.9 µM [falling, partial curve]"
CN(C)/C=C1\C(=O)N(c2ccc([N+](=O)[O-])cc2)N=C1c1ccccc1,,"inconclusive: 20.6 µM [activator, partial curve]"
NNc1nc(-c2ccccc2)cc(-c2ccc(Br)cc2)n1,,"inconclusive: 18.4 µM [falling, single point]"
CCN1CCN(c2ccc(NC(=O)c3ccc([N+](=O)[O-])o3)cc2Cl)CC1,inactive: 10%,
CC1CC(C)CN(c2oc(-c3ccc(OCc4ccccc4Cl)cc3)nc2C#N)C1 (centres undefined),inactive: -2.08%,
O=C1C(NS(=O)(=O)c2ccccc2)=C(N2CCN(c3ccc(F)cc3)CC2)C(=O)c2ccccc21,inactive: -21%,
CCCCc1ccc(Nc2ncnc3nc[nH]c23)cc1,,"inconclusive: 29.1 µM [falling, partial curve, poor fit]"
Cc1cc(Cl)c(OCCCn2cncn2)c(Br)c1,,"inconclusive: 8.2 µM [falling, partial curve, poor fit]"
CC(C)(C)C(=O)NCCc1nc2ccccc2n1CCCCOc1ccc(Cl)cc1,,"inconclusive: 29.1 µM [falling, single point]"

# 3 entries drawn at random from the list so far:
Compound,"activity change, negative = inhibition",Potency
O=C1C(NS(=O)(=O)c2ccccc2)=C(N2CCN(c3ccc(F)cc3)CC2)C(=O)c2ccccc21,inactive: -21%,
O=C(O)c1ccc(NNC(=S)Nc2cc(C(F)(F)F)ccc2Cl)cc1,,"inconclusive: 18.4 µM [activator, single point]"
c1ccc(-c2csc3ncnc(NCC4COc5ccccc5O4)c23)cc1 (centres undefined),,active: 1.64 µM
